Assay results taken from PubChem BioAssay AID1845225 (National Center for Advancing Translational Sciences (NCATS), 2023).
This list was built around the results that the source calls inconclusive (neither active nor inactive); the mix of calls is not that of the screen. Potencies beside an inconclusive call are fits to weak or partial responses and may not hold up. Activity calls are given as the source filed them. The call rests on the fitted dose curve; in most records, active means well fitted curve in the direction sought with a large enough effect; inconclusive means small, poorly fitted or top-dose-only effect, or effect the other way, or another doubt; inactive means no such curve, though single readings can be large or run the other way.

test: Confirmatory redox qHTS assay for identification of artifact compounds.; settings: Amplex Red/HRP redox cycling with DTT, fluorescence; series mostly up to 39 µM; redox activity vs DA3003: at the top concentration
Text: PI: Alexander Tropsha Ph.D. UNC Eshelman School of Pharmacy University of North Carolina, Chapel Hill, North Carolina Hits from high-throughput screening (HTS) of chemical libraries are often false positives due to their interference with the assay detection technology. In response to this problem, we generated the largest publicly available library of chemical liabilities and developed a free webtool to predict HTS artifacts, both of which are described herein. More specifically, we generated, curated, and integrated HTS datasets for thiol reactivity, redox activity, and luciferase (firefly and nano) activity. Using these curated datasets, we developed and validated several Quantitative Structure-Interference Relationship (QSIR) models to predict nuisance behavior. […] These models were employed for virtual profiling of the National Center for Advancing Translational Science's (NCATS) in-house library, and 256 compounds for each assay were selected for the experimental validation of nuisance behavior. The BA for these external predictions ranged from 58 to 78% for compounds within the applicability domains of the models. […] The models developed in this study, along with aggregation models previously developed by our group (SCAM Detective) were implemented in "Liability Predictor," an online tool which may be used as part of chemical library design or for triaging HTS hits. Both the models and the curated datasets are publicly available at https://liability.mml.unc.edu/.
PROTOCOL TABLE SEQUENCE No. (e.g., 1, 2, 3, etc.); […] (e.g., Cells, Incubation, Reagent, etc.); VALUE; DESCRIPTION. 1; Reagent; 3 uL; Amplex Red and HRP mixture. 2; Compounds and control; 16 nL; Kalypsis pin tool (Wako USA) equipped with a 1536-well pin head. 3; Incubation; 15 min. 4; Reagent; 1 uL; […]. 5; Incubation; 30 min. 6; Detection; Fluorescence, ViewLux microplate reader, 525 nm excitation, 598 nm emission. NOTES (numbers refer to Sequence numbers above) 1. 3 uL of a mixture containing Amplex Red (25 uM final concentration) and horseradish peroxidase (HRP; 250 mU/mL final concentration) in assay buffer (HBSS) was dispensed into all wells of a 1536-well assay plate (solid-bottom black plate; Greiner Bio One, Monroe, NC). 2. […] 3. 15 min. incubation at room temperature protected from light. 4. 1 uL of DTT (prepared fresh; final concentration 250 uM) was dispensed for a final assay volume of 4 uL. 5. Plates were centrifuged (121xg, 15 seconds) and incubated for 30 minutes at room temperature protected from light. 6. Samples were read for fluorescence (Ex/Em = 525(20)/598(25) nm) on a ViewLux CCD imager (PerkinElmer). Data were normalized to DMSO (0% activity) and DA3003 (10 uM final concentration; 100% activity) and the resulting percent inhibition data were fitted to a 4-parameter Hill equation using NCATS in-house software.

SMILES | Potency | redox activity vs DA3003
COc1cc2c(NC3CCN(C4CCCCC4)CC3)nc(N3CCCCCC3)nc2cc1OCCOCCN(C)C | inconclusive: 7.7 µM [activator, full curve, poor fit] | –
O=C1C(=O)c2ccccc2C(O)=C1C1CCCCC1 | inconclusive: 15.4 µM [activator, partial curve, poor fit] | –
COc1cc2c(NC3CCN(C(C)C)CC3)nc(N3CCCN(C4CCCCC4)CC3)nc2cc1OCCCN1CCCC1 | inconclusive: 15.4 µM [activator, partial curve] | –
CC(NC(=O)CSc1nc(-c2ccccc2F)nc2cc(=O)[nH]n12)c1nc2ccccc2n1C (configuration not stated) | – | inactive: 4.09%
O=C(NC1CCCCCC1)c1ccc(CS(=O)c2ccc(Br)cc2)o1 (configuration not stated) | – | inactive: 9.24%
COc1cc2c(NC3CCN(C)CC3)nc(N3CCCN(C)CC3)nc2cc1OCC1CCNCC1 | inconclusive: 19.4 µM [activator, partial curve, poor fit] | –
C[C@@H]1OC(OC2CC[C@@]3(C)C(CC[C@@]4(C)C3CC=C3C5CC(C)(C)CC[C@]5(C(=O)OC5OCC(O)[C@@H](O)[C@@H]5OC5O[C@@H](C)[C@H](O[C@H]6OC(CO)C(O)C(O)C6O)C(O)C5O)C(O)C[C@@]34C)C2(C)C)C(O)C(O)[C@H]1OC1OCC(O)C(O)[C@H]1O (some centres not stated) | inconclusive: 10.9 µM [activator, partial curve, poor fit] | –
COc1cccc(Oc2nc(C)nc3c2oc2ccccc23)c1 | inconclusive: 10.9 µM [activator, partial curve, poor fit] | –
COc1cc(OC)c(NC(=O)C(c2ccccc2)N2Cc3ccccc3C2=O)cc1Cl (configuration not stated) | – | inactive: 1.62%
CCN(CCCNC(=O)CSc1cc(=O)n(C)c2ccccc12)c1ccccc1 | inconclusive: 15.4 µM [activator, partial curve, poor fit] | –
COc1ccc2cc1Oc1ccc(cc1)CC1c3cc(c(OC)cc3CCN1C)Oc1c(OC)c(OC)c(OC)c3c1C(C2)N(C)CC3 (configuration not stated) | inconclusive: 5.31 µM [activator, partial curve, poor fit] | –
COc1ccc(-c2nc3cccc(OC)c3c(=O)n2Cc2ccccc2)cc1COc1ccc(NC(C)=O)cc1 | inconclusive: 12.2 µM [activator, partial curve, poor fit] | –
COc1ccc(NC(=O)C(Cc2ccccc2)n2cccc2)c(OC)c1 (configuration not stated) | – | inactive: -0.936%
COc1cc2nc(NC3CCN(Cc4ccccc4)CC3)nc(N3CCCN(C)CC3)c2cc1OC | inconclusive: 12.2 µM [activator, partial curve, poor fit] | –
CCN1CCCN(c2nc(NC3CCN(C(C)C)CC3)c3cc(OC)c(OCCCN4CCCC4)cc3n2)CC1 | inconclusive: 19.4 µM [activator, single point] | –
COc1ccccc1NC(=O)CSC1=Nc2ccccc2C2=NC(CC(=O)NCc3ccccc3)C(=O)N12 (configuration not stated) | inconclusive: 12.2 µM [activator, partial curve, poor fit] | –
COc1cc2c(NC3CCN(C4CCCCC4)CC3)nc(N3CCCN(C)CC3)nc2cc1OCCCN1CCCCC1 | inconclusive: 17.2 µM [activator, partial curve, poor fit] | –
CNCCCOc1cc2nc(N3CCCN(C)CC3)nc(NC3CCN(C)CC3)c2cc1OC | inconclusive: 19.4 µM [activator, partial curve, poor fit] | –
Oc1ccc(CNc2ccccc2Br)c2cccnc12 | inconclusive: 27.3 µM [activator, single point] | –

SMILES | Potency | redox activity vs DA3003
Cc1cccc(N2CCN(CCCNC(=O)c3nnc(Cc4c(F)cccc4Cl)o3)CC2C)c1 (configuration not stated) | – | inactive: 3.43%
COc1ccc(C2c3c(oc4ccc(Cl)cc4c3=O)C(=O)N2CCCN(C)C)cc1OC (configuration not stated) | inconclusive: 17.2 µM [activator, partial curve, poor fit] | –
COc1cc2c(NC3CCN(CC4CCCCC4)CC3)nc(N3CCCN(C)CC3)nc2cc1OCCCN1CCCCC1 | inconclusive: 13.7 µM [activator, partial curve, poor fit] | –
COc1ccc(C(=O)O)cc1Nc1nc2ccc(C)cc2n2cnnc12 | – | inactive: -0.298%
CN1C(C(=O)Nc2ccc(F)cc2F)=CC(c2cccs2)=NS1(=O)=O | – | inactive: 0.262%
O=C(NCCSc1c(-c2ccc(Br)cc2)[nH]c2ccccc12)c1ccc(S(=O)(=O)N2CCOCC2)cc1 | – | inactive: 0.987%
C[C@@H]1CC2C3CCC4=CC(=O)C=C[C@]4(C)[C@@]3(F)C(O)C[C@]2(C)[C@@]1(O)C(=O)COC(=O)c1cccc(S(=O)(=O)O)c1 (some centres not stated) | – | inactive: 5.29%
COc1cc2c(NC3CCN(C(C)C)CC3)nc(N3CCCN(c4ccccc4)CC3)nc2cc1OCCCN1CCCC1 | inconclusive: 9.7 µM [activator, partial curve] | –
CN1C(CC(=O)c2ccccc2)CCCC1CC(O)c1ccccc1 (configuration not stated) | – | inactive: -0.636%
COc1ccccc1Cn1c(CNS(=O)(=O)c2ccc3c(c2)CCCC3)nc2cccnc21 | – | inactive: 7.55%
CNC(=O)c1c(NC(=O)/C=C/c2ccccc2Cl)sc2c1CCC2 | inconclusive: 3.07 µM [activator, full curve] | –
O=C(Cc1ccccc1)NC(c1ccco1)c1cc(Cl)c2cccnc2c1O (configuration not stated) | inconclusive: 15.4 µM [activator, partial curve] | –
COc1cc2c(NC3CCN(C(C)C)CC3)nc(N3CCCCC3)nc2cc1OCCCN1CCCC1 | inconclusive: 15.4 µM [activator, partial curve] | –
CCCCNC(=O)c1ccc2c(c1)NC(=O)C(C(C)C)N2 (configuration not stated) | inconclusive: 21.7 µM [activator, single point] | –
CCC(C)NC(=O)c1ccc2c(c1)N(Cc1ccccc1)C(=O)c1ccccc1S2(=O)=O (configuration not stated) | inconclusive: 7.7 µM [activator, partial curve, poor fit] | –
COc1ccc(C(=O)Nc2ccc(-n3nncc3-c3ccccc3)cc2)cc1OC | – | inactive: 2.69%
COc1ccc(CNc2nc(NCc3ccc(OC)cc3)c3ncn(C(C)C)c3n2)cc1 | inconclusive: 9.7 µM [activator, partial curve] | –
Cc1ccc(OCCn2c(CCNC(=O)c3c(F)cccc3F)nc3ccccc32)cc1 | – | inactive: 0.522%

Filtered by structure, those above containing an NH in an aromatic ring.
SMILES | Potency | redox activity vs DA3003
CC(NC(=O)CSc1nc(-c2ccccc2F)nc2cc(=O)[nH]n12)c1nc2ccccc2n1C (configuration not stated) | – | inactive: 4.09%
O=C(NCCSc1c(-c2ccc(Br)cc2)[nH]c2ccccc12)c1ccc(S(=O)(=O)N2CCOCC2)cc1 | – | inactive: 0.987%
